Assay results from PubChem BioAssay AID1445 (SRMLSC, 2008).
The campaign covered roughly 220,000 compounds. About 910 (0.41%) were called active. The inconclusive results got no clear call from the source; some entries with a clear call stand among them for comparison.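 Rule for the calls: active = primary inhibition above the hit cutoff, then over 50% inhibition at one or more dose response concentrations (cut at about 23% in these data, passing the limit was not always enough); inconclusive = conflicting primary data, or primary hits not chosen for dose response; inactive = low primary inhibition, or under 50% at every dose.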

By UniProt entry, the sequences of proteins in these tests, tags left out. Where a name states a change or a piece, a line headed by the entry shows the natural chain unless it says otherwise.
UniProt O96935: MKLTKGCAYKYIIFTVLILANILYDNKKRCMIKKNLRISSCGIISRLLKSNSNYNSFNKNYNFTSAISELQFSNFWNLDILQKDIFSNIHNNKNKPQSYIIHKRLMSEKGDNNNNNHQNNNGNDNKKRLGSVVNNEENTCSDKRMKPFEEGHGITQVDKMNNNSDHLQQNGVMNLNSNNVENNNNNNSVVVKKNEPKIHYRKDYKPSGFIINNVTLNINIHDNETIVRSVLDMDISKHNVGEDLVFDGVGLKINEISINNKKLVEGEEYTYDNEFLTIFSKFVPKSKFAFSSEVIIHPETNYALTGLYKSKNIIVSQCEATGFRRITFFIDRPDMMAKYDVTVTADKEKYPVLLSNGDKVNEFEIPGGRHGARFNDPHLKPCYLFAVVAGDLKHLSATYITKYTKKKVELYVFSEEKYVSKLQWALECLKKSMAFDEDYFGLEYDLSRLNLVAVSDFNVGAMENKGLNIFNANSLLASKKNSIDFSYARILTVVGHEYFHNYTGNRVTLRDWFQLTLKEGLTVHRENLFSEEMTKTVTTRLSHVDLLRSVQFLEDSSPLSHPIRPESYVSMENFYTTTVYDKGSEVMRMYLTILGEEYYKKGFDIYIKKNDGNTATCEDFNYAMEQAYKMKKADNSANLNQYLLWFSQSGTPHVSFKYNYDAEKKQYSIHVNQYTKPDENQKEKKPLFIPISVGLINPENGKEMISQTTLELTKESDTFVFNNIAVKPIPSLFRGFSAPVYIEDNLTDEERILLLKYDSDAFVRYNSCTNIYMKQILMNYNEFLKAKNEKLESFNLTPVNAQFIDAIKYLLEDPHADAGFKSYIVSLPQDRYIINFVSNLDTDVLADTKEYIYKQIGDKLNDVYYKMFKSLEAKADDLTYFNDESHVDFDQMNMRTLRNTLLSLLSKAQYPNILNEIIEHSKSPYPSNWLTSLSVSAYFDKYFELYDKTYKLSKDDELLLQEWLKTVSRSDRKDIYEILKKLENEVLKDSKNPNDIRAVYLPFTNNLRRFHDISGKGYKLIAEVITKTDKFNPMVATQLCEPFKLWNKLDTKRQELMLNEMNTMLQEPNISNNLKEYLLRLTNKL

molecular target: Aminopeptidase N (Plasmodium falciparum (isolate 3D7)) (UniProt O96935); assay: P. falciparum M1AAP inhibitors, biochemical, fluorogenic H-Leu-NHMec substrate, 1536-well (AID 1445); conditions: recombinant M1AAP, H-Leu-NHMec fluorogenic kinetic assay; at 30 µM, stronger effect = higher value unless noted;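 note: plate controls were DMSO full reaction for no effect and no enzyme background for full effect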

Row | Structure (SMILES) | inhibition
1 | COc1ccc(C)cc1-n1c(SCC(=O)Nc2cc(C)on2)nc2ccccc2c1=O | inconclusive: 26%
2 | CC(=O)NC(=S)Nc1ccc([N+](=O)[O-])cc1C | inactive: 3.35%
3 | Cn1cnnc1SCC(=O)Nc1ccc2nc(SCc3ccccc3F)sc2c1 | inactive: -0.14%
4 | COC(=O)c1cc2c(s1)-c1ccc(OC)cc1CC2 | inconclusive: 25.1%
5 | NC(=O)[C@@H]1CCCCNc2c(F)cc([N+](=O)[O-])cc2C(=O)N[C@@H](CC(=O)O)C(=O)NCC(=O)N1 | inconclusive: 32.1%
6 | Cc1ccc(C(C(=O)NCc2ccco2)N(Cc2ccco2)C(=O)CNC(=O)c2ccco2)cc1 (stereo not given) | inactive: 19.3%
7 | CCOC(=O)NN1C(=O)c2ccccc2NC1c1ccccn1 (stereo not given) | inconclusive: 27.1%
8 | O=Cc1ccc2cccnc2n1 | inactive: 3.17%
9 | O=C(NNC(=S)NCc1ccco1)c1ccc(Cl)s1 | inconclusive: 35.4%
10 | N#C/C(=C\c1ccc(-c2ccc([N+](=O)[O-])cc2Br)o1)C(=O)N1CCN(c2ccccc2)CC1 | inconclusive: 24%
11 | O=C(O)c1cc(NN=Nc2cccc([N+](=O)[O-])c2)cc([N+](=O)[O-])c1 | inconclusive: 26.2%
12 | O=C(CSc1nc2ccccc2nc1SCC(=O)N1CCCCC1)N1CCCCC1 | active: 42.7%
13 | O=S(=O)(Nc1cccnc1)c1cc(Cl)ccc1Cl | active: 25.4%
14 | CC(=O)Nc1ccc(S(=O)(=O)Nc2nc3cc4c(cc3nc2Cl)OCCO4)cc1 | inconclusive: 24.9%
15 | Cc1c(C(=O)OC2CCCC2)[nH]c2c1C(=O)CC(c1ccco1)C2 (stereo not given) | active: 25.6%
16 | CN(C)c1nc(-c2ccccc2)c2cnn(Cc3ccccc3)c2n1 | inconclusive: 24.8%
17 | CCCc1n(CC(O)COCc2ccccc2)c2ccccc2[n+]1C (stereo not given) | inactive: 6.5%
18 | O=C(COC(=O)CSc1ccc2ccccc2c1)Nc1ccccc1OC(F)F | inconclusive: 25.1%
19 | CN1/C(=C/C(=O)C2CCC2)Sc2ccccc21 | inconclusive: 23.9%
20 | N#C/C(=N\Nc1cccc(Cl)c1)C(=O)c1ccccc1 | active: 23.3%
21 | O=C(O)COc1ccccc1/C=N/NC(=O)CSc1nnc(SCc2ccccc2)s1 | inactive: 14.1%
22 | COc1ccc(/C=N/N=C2/NC(=O)C(CC(=O)O)S2)cc1OS(=O)(=O)c1ccccc1 (stereo not given) | inconclusive: 23.6%
23 | O=C(Cn1cnc2c(nnn2Cc2ccccc2)c1=O)c1ccc(Cl)cc1 | inactive: 2.57%
24 | O=c1[nH]c(=S)[nH]cc1Oc1ccc(Cl)cc1Cl | inconclusive: 32.1%
25 | Cc1cc(NS(=O)(=O)c2ccc(NC(=O)C(C)N3C(=O)c4ccccc4C3=O)cc2)nc(C)n1 (stereo not given) | inactive: 2.55%

A different layout for two compounds above:
Row	Structure (SMILES)	inhibition
14	CC(=O)Nc1ccc(S(=O)(=O)Nc2nc3cc4c(cc3nc2Cl)OCCO4)cc1	inconclusive: 24.9%
15	Cc1c(C(=O)OC2CCCC2)[nH]c2c1C(=O)CC(c1ccco1)C2 (stereo not given)	active: 25.6%
